# Source: publication PMC13226233
# Protein sequences, listed by entry. Tags and fused reporters are not part of them.
# UniProt P54198: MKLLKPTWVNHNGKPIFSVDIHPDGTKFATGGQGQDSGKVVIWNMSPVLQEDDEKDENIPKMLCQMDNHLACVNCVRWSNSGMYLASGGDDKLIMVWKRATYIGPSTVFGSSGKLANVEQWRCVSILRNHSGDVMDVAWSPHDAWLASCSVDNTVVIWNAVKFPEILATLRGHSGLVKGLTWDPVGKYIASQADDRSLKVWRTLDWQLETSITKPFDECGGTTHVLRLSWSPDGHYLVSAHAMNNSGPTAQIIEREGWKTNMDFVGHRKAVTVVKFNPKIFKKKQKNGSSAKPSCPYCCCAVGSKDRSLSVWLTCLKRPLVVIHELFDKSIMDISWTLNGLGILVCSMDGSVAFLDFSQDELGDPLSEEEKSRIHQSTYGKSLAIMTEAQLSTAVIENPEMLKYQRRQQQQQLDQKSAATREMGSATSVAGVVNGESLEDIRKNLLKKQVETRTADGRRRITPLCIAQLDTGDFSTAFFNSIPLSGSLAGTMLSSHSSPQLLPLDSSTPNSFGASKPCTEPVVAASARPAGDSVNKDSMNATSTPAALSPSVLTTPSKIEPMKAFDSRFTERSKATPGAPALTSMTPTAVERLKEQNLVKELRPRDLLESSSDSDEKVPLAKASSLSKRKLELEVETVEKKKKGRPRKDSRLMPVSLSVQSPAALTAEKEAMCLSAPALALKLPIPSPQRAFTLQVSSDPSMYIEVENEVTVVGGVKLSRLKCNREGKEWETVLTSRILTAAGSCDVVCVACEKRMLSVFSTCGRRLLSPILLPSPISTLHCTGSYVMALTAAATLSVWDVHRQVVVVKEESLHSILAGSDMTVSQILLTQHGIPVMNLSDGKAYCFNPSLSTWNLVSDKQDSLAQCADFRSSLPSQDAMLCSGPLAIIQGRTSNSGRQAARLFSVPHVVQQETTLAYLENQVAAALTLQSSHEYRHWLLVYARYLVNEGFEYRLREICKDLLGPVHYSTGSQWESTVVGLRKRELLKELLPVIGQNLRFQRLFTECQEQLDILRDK
# UniProt Q9NPG3: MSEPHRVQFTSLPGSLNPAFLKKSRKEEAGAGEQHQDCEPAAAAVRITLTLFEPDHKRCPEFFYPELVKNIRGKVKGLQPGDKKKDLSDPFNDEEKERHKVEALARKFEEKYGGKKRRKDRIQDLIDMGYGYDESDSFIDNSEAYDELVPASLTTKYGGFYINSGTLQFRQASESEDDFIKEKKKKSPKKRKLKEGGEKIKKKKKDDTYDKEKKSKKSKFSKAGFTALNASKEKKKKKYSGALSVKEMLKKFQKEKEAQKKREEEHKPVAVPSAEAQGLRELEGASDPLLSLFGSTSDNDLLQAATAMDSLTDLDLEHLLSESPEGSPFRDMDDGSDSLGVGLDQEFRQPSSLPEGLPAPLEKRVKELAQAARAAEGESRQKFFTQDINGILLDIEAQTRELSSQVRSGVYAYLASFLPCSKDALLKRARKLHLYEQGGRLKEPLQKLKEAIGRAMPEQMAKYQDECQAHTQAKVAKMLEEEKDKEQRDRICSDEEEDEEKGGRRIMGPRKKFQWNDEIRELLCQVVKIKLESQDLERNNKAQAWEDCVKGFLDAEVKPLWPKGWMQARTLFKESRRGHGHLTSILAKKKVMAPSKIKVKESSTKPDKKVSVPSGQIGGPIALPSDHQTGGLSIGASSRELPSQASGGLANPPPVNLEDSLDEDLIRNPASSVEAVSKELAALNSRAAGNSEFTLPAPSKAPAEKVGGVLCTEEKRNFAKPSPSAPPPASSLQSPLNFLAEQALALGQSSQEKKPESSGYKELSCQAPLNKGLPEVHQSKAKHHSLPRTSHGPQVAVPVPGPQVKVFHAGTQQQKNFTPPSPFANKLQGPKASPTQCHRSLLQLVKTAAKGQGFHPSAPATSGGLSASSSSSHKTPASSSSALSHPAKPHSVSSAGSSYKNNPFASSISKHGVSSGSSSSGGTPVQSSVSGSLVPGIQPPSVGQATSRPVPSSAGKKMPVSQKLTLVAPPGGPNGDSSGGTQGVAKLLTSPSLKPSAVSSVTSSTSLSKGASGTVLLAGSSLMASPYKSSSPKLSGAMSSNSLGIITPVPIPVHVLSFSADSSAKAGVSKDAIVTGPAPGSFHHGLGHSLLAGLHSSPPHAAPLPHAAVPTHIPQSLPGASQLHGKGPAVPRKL
# No constants are given. Whether binding was seen depends on the method and setting. In cells and extracts the contact can be indirect. Some results given as binding are weak or reduced against the parent protein; the word gives no strength.
# Molecular target: Histone cell cycle regulator A (HIRA) (human (endogenous in K562)) (UniProt P54198)
# Experiment: co-IP; endogenous HIRA immunoprecipitated from K562 whole cell lysate in NETN buffer (20 mM Tris-HCl pH 7.5, 100 mM NaCl, 1 mM EDTA, 0.1% Nonidet P-40), protein G agarose beads, eluted in 2x Laemmli dye; Western blot; IgG control
substance,measurement,value
UBN1 (from UniProt Q9NPG3 1-1134),binding,binds
